## Primary screen of a compound library

Protein sequences, listed by entry. Tags and fused reporters are not part of them.
UniProt E9BF75, entry or part of it: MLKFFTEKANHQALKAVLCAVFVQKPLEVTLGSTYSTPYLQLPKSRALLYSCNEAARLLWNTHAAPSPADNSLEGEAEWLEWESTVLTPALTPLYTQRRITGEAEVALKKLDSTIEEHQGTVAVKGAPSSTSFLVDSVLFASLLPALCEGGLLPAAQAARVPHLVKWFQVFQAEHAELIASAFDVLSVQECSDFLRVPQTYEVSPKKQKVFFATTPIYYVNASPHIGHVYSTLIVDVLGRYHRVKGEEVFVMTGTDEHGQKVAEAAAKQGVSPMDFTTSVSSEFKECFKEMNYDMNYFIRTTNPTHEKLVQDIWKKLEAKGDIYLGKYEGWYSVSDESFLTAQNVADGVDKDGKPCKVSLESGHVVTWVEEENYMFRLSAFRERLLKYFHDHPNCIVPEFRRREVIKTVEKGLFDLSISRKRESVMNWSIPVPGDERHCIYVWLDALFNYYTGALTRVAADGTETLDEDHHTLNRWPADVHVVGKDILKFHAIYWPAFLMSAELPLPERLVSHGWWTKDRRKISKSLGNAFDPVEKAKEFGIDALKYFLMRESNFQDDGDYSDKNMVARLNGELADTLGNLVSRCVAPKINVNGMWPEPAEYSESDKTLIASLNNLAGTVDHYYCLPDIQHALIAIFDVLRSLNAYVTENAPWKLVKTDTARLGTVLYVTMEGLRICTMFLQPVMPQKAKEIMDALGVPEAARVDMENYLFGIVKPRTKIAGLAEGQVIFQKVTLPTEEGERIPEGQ

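Primary screen of methionyl-tRNA synthetase; the read-out is not stated. Target: Methionyl-tRNA synthetase (putative), Leishmania donovani (UniProt E9BF75). The test concentration is not given. The values are filed as inhibition. Of about 68,000 compounds tested this way, about 24 (0.035%) reached 50% or more in at least one test.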

Results are percentages, as filed.
The controls that fix the scale are not given in the record; negative values are as filed.
This is an unselected part of the compounds tested.

SMILES: Cc1nc2cc(=O)[nH]n2c(C)c1CC(=O)NC(C)C
inhibition: 8.807

SMILES: CCS(=O)(=O)NCC(=O)Nc1cc(CC(C)(C)C)n[nH]1
inhibition: 9.946

SMILES: CC(C)COCC(NC(=O)CSc1nnc[nH]1)c1ccco1 (stereo not given)
inhibition: 7.459

SMILES: O=C(NC[C@@H]1CCCO1)c1cccnc1N1CCCC1c1ccccn1 (stereo not given in full)
inhibition: 14.72

SMILES: COc1ccnc(N2Cc3cnc(C(C)(C)C)nc3C2)n1
inhibition: 16.36

SMILES: CN1C(=O)[C@H]2CC[C@@H]1CN(C(=O)c1sccc1S(N)(=O)=O)C2
inhibition: -4.511

SMILES: CC(NC(=O)COc1ccccc1Cl)c1nnc2n1CCC2 (stereo not given)
inhibition: 10.64

SMILES: COC(=O)CC(c1cccc(OC(F)F)c1)c1oc(C)cc(=O)c1O (stereo not given)
inhibition: 11.78

SMILES: O=C(c1ccncc1)N1CCc2ncnc(C3CC3)c2CC1
inhibition: 12.64

SMILES: CCSc1ncc(Cl)c(C(=O)NC(CCSC)C(=O)O)n1 (stereo not given)
inhibition: 8.378

SMILES: CC(=O)N1CCC2(C1)c1ccccc1S(=O)(=O)N2CCC(C)C (stereo not given)
inhibition: 8.493

SMILES: CC1CCCN(S(=O)(=O)NCc2ccccc2Cn2cncn2)C1 (stereo not given)
inhibition: 10.83

SMILES: COc1ccccc1C1(CNc2nnc(C)c(C)c2C#N)CCOCC1
inhibition: 14.13

SMILES: CN(C)C(=O)N1CCC[C@]2(C(=O)N(C)C)CN(c3ccccn3)C[C@@H]2C1
inhibition: 14.52

SMILES: COc1cccc2c3c(c(=O)n(C)c12)CCC(C)(C)O3
inhibition: 20.53

SMILES: O=C(CNc1ccccc1S(=O)(=O)C(F)F)NCc1ccco1
inhibition: 6.267

SMILES: CCNC(=O)Nc1ccc2c(ccn2CC(=O)N(CC)CC)c1
inhibition: 21.43

SMILES: CCN1CCN(C(=O)c2cc(C(F)(F)F)n[nH]2)[C@H]2CS(=O)(=O)C[C@H]21
inhibition: 12.13

SMILES: Cc1ccc(N2Cc3cnn(C)c3C(COCC3CC3)C2)nn1 (stereo not given)
inhibition: 14.21

SMILES: Cc1nc(CN2C[C@@H]3CN(C(=O)c4ccncc4)C[C@@H]3C2)cs1
inhibition: 15.84

SMILES: O=C(CCn1nc(C(=O)Nc2ccccc2)ccc1=O)Nc1nccs1
inhibition: 9.934

SMILES: CSc1ccc(C(C(=O)O)N2CCOCC2)cc1 (stereo not given)
inhibition: 6.875

SMILES: COc1ccc2[nH]c3c(N(C)CC4OCCO4)ncnc3c2c1
inhibition: 5.263

SMILES: Cc1cc(C)cc(OCC(O)CN2CCN(c3nccs3)CC2)c1 (stereo not given)
inhibition: 4.775

SMILES: Cc1ccc([C@@H]2CN(C(=O)c3ccon3)C[C@H]2NC(=O)C2CC2)cc1
inhibition: 4.396

SMILES: O=c1cc(N2CCCCC2)cnn1C[C@H](O)CO
inhibition: 21.49

SMILES: c1csc(CN2CCC3(CC2)COCCN3CC2CC2)n1
inhibition: 9.343

SMILES: CN(C)c1nccc(CNC(=O)NC(C)(C)C)n1
inhibition: 16.03

SMILES: Cc1cnccc1NCCNC1CCN(CC(C)C)CC1
inhibition: 8.732

For reference, 2 entries once more:

Cc1nc(CN2C[C@@H]3CN(C(=O)c4ccncc4)C[C@@H]3C2)cs1 read 15.84%.
Cc1ccc(N2Cc3cnn(C)c3C(COCC3CC3)C2)nn1 (stereo not given) read 14.21%.

Data taken from ChEMBL document CHEMBL3988442, “University of Dundee, Small-Polar-MMV Screening Library” (2021).